# Measurements taken from PubChem BioAssay AID504467 (National Center for Advancing Translational Sciences (NCATS), 2011).
# About 7,700 (2.3%) of roughly 330,000 compounds were called active. This list was built around the results that the source calls inconclusive (neither active nor inactive); the mix of calls is not that of the screen. The call rests on the fitted dose curve; in most records, active means well fitted inhibition curve with a large enough effect; inconclusive means small, poorly fitted or top-dose-only effect, or effect the other way; inactive means flat fitted curve, though single readings scatter. Potencies of inconclusive entries are doubtful fits and often do not repeat.
# Experiment: qHTS screen for small molecules that inhibit ELG1-dependent DNA repair in human embryonic kidney (HEK293T) cells expressing luciferase-tagged ELG1; further: nearly all actives have a fitted effect of over 55% in size
# Conditions: HEK293T ELG1-luciferase reporter, luminescence, 16 h, DNA damage induced by 5-fluorouridine; series mostly up to 46.1 µM
# Text: NIH Molecular Libraries Probe Production Network [MLPCN] NIH Chemical Genomics Center [NCGC] MLPCN Grant: 1 R03 MH092164-01 Assay Provider: Kyungjae Myung, NHGRI, NIH Keywords: MLPCN, qHTS, NCGC, genotoxicity, cancer Assay Overview: Cancer cells divide rapidly compared to normal cells in the body. During cell division, cancer cells need to duplicate their genome by DNA replication. The failure of genome duplication leads to cancer cells' death. Therefore, inhibitors of DNA replication could specifically kill cancer cells. Based on this concept, many chemotherapeutic agents were developed and have been used to treat cancer patients. However, there are a limited number of agents available in the clinical setting, and some of those that do exist have low efficacy and severe side effects. Therefore, if we can find the compounds that effectively block DNA replication either by directly damaging DNA or by inhibiting other cellular mechanisms, the options for cancer treatment will be broadened. With this in mind, we developed a quantitative high-throughput ELG1-luciferase reporter gene assay. Small molecules that specifically block ELG1 function in response to DNA damage can be identified by monitoring the suppression of luciferase activity. Since ELG1 defines a pathway for repairing DNA damage, agents blocking ELG1 function can be used to sensitize cancer cells to chemotherapeutic agents whose mechanism of action involves the induction of DNA damage.
# Assay Protocol Summary: For genotoxicity screening, 2,000 cells in 4 uL/well were dispensed into white, solid-bottom 1536-well plates using a solenoid-based dispenser. Following transfer of 1 uL 5-Fluorouridine and 23 nL compound or DMSO vehicle by a pin tool, the plates were incubated 16 hr at 37 °C and 5% CO2. 5 ul ONE-Glo (Promega) was then added to each plate and following a 30 min incubation at room temperature, luciferase activity was quantified on a ViewLux CCD-based plate reader.
# Potency means the concentration at half of the fitted maximal effect.
row,SMILES,Potency
1,CC(C)(C)CC(C)(C)c1ccc(OCC(=O)N/N=C/c2ccc(S(=O)(=O)O)o2)cc1,"inconclusive: 6.51 µM [inhibitor, single point]"
2,O=C(O)Cn1cc(/C=c2/sc3nc4ccccc4n3c2=O)c2ccccc21,"inconclusive: 18.3 µM [activator, partial curve]"
3,COc1cc(/C=C2/C(=N)N3C(=NC2=O)SN=C3S(C)(=O)=O)ccc1OS(=O)(=O)c1ccccc1,"inconclusive: 18.3 µM [activator, single point]"
4,COc1cc(/C=N/Nc2ccc(Cl)c(C(=O)O)c2)ccc1OC(=O)c1ccc(F)cc1,"inconclusive: 16.4 µM [activator, partial curve]"
5,CCOc1cc(/C=C2/C(=N)N3C(=NC2=O)SN=C3S(C)(=O)=O)ccc1OS(=O)(=O)c1ccccc1,"inconclusive: 16.4 µM [activator, partial curve, poor fit]"
